Some of the results follow. Further columns of the screen follow, without active or inactive calls. Compounds called inactive in the main read-out are mostly missing here. Words in brackets tell the shape of the fitted curve; partial curves, single points and poor fits give uncertain potencies.

This experiment is described as follows: IkB Signaling. The settings on record: ABC-DLBCL IkBa-CBG/CBR dual luciferase ratio (green luciferase fused to IkBa over red control in OCI-Ly3 lymphoma cells), 4 h; measured here: control luc red channel unless noted. Summed up: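 Curves were fitted separately to fusion (green), unfused (red) and ratio luminescence, then classed by r2, magnitude and activity. Cells: OCI-Ly3, 4 h compound plus doxycycline at 37C; 10 uM MG-132 defined full response.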
As for `CCOC(=O)c1c(C)[nH]c(C)c1S(=O)(=O)N1CCC(C(=O)NCc2ccc(OC)cc2)CC1`, the AC50 was 5.01 µM [rising, partial curve].

With `COC(=O)c1ccc2c(=O)n(CCCCCC(=O)N3CCN(c4cccc(C)c4C)CC3)c(=O)[nH]c2c1`, the half-maximal activity concentration (AC50) was 10 µM [falling, partial curve].

Turning to `COCCCNc1nc2c(-c3cccc(Br)c3)nnn2c2ccccc12`, the AC50 was 0.794 µM [falling, full curve].

With `O=C(O)CCC(=O)Nc1ccc2ccccc2c1`, the AC50 is 0.794 µM [falling, full curve].

On to `O=C(CSc1nc2c([nH]c3ccccc32)c(=O)n1-c1ccc(F)cc1)Nc1ccc2c(c1)OCCO2`, for which the concentration at half-maximal activity (AC50) is 1 µM [falling, full curve, poor fit].

Turning to `Cc1ccc(S(=O)(=O)N(CC(O)Cn2c3ccccc3c3ccccc32)c2cccc(C(=O)NCCO)c2)cc1` (centres undefined), the AC50 is 10 µM [falling, partial curve].

For the compound `CCCCc1ccc(NC(=O)C2CCCO2)cc1` (centres undefined), the AC50 is 25.1 µM [falling, single point].

As for `COc1cc(OC)c(N(C)C(=O)c2cc3c(s2)-c2ccccc2OC3)cc1Cl`, the AC50 was 15.8 µM [falling, partial curve].

For `COc1ccc2c(CNCc3cccs3)c(C(=O)O)n(Cc3ccccc3C)c2c1`, the half-maximal activity concentration (AC50) was 0.398 µM [falling, partial curve].

As to `O=C(c1nnc(Cc2ccc(Cl)cc2)o1)N1CCc2ccccc2C1`, the AC50 was 12.6 µM [falling, partial curve].

Turning to `CC(=O)C1=C(C)NC(SCC(=O)c2ccc(F)cc2)=C(C#N)C1c1ccco1` (centres undefined), the AC50 was 25.1 µM [falling, partial curve].

With `Cc1ccc(Sc2ccc(N3CCC(C(=O)Nc4ccc(Cl)cc4)CC3)nn2)cc1`, the AC50 is 7.94 µM [falling, full curve, poor fit].

In the case of `CN1CCN(c2ncc3nc(-c4cn(C)c5ccccc45)c(=O)n(CCC#N)c3n2)CC1`, the AC50 was 3.98 µM [falling, partial curve].

Take `O=C(Nc1nc2c(F)cccc2s1)c1ccc2c(c1)OCCO2`: the AC50 was 3.16 µM [falling, partial curve].

Turning to `Cc1ccc(N2C(=O)C(CC(=O)Nc3ccc(F)cc3)N(Cc3ccc4c(c3)OCO4)C2=O)cc1` (centres undefined), the AC50 was 20 µM [falling, partial curve].

`Cc1ccc(CNC(=O)c2ccc3c(c2)NC(=O)C(CS(=O)(=O)Cc2cccc(F)c2)N3)cc1` (centres undefined): the AC50 was 12.6 µM [falling, partial curve, poor fit].

With `Cn1cccc1Cc1nnc(SCC(=O)Nc2cccc(F)c2)n1CCc1ccccc1`, the AC50 is 20 µM [falling, partial curve].

For `CCOC(=O)Cn1c(=O)oc2cc(S(=O)(=O)Nc3cc(Cl)ccc3OC)ccc21`, the AC50 was 10 µM [falling, partial curve].

As to `Cc1c(C(=O)O)oc2c1-c1nn(Cc3ccccc3Cl)cc1CC2`, the AC50 is 12.6 µM [falling, partial curve].

In the case of `CCc1ccccc1NC(=O)c1ccc(F)c(S(=O)(=O)N2CCN(c3ccccc3OC)CC2)c1`, the AC50 is 12.6 µM [falling, partial curve].

For `Cc1oc2ncn(CC(C)C)c(=O)c2c1C(=O)Nc1ccc(Cl)cn1`, the half-maximal activity concentration (AC50) was 39.8 µM [falling, single point].

For the compound `Cc1cccc(OCCn2nnc3sc4c(c3c2=O)CCCC4)c1`, the AC50 is 2.51 µM [rising, partial curve].

Regarding `COc1ccc(-n2c(-c3ccc(Cl)cc3)cc3c2CC(C)(C)CC3=O)c(OC)c1`, the AC50 was 15.8 µM [falling, partial curve].

For `CC1=C(C(=O)Nc2ccc(C)cc2C)C(c2ccc(C(C)C)cc2)n2nc(C(F)(F)F)nc2N1` (centres undefined), the half-maximal activity concentration (AC50) is 39.8 µM [falling, single point].

Take `O=C1C2=C(Nc3ccccc3SC2c2c(F)cccc2Cl)c2ccccc21` (centres undefined): the AC50 was 7.94 µM [falling, full curve].

For the compound `O=C(NCCc1ccc(F)cc1)C(=O)NCC(c1cccs1)S(=O)(=O)c1cccs1` (centres undefined), the AC50 is 0.631 µM [rising, full curve, poor fit].

Consider `CC(C)(C)OC(=O)N1CCC(c2c(C(=O)N3CCN(C4CCCCC4)CC3)cnn2-c2cccc(Cl)c2)CC1`, for which the AC50 is 25.1 µM [falling, single point].

On to `Cc1oc2ncn(C)c(=O)c2c1C(=O)N(C)c1ccccc1F`, for which the concentration at half-maximal activity (AC50) was 0.01 µM [rising, full curve, poor fit].

With `O=C(COc1ccccc1)Nn1cnc2ccccc21`, the AC50 was 1.26 µM [falling, full curve].

Regarding `CCCCNC(=O)c1sc2nc(C)cc(COC)c2c1-n1cccc1`, the AC50 is 12.6 µM [falling, partial curve].

With `CCOC(=O)N1CCC(NC(=O)c2cnn(-c3cccc(C)c3)c2-n2cccc2)CC1`, the AC50 is 15.8 µM [falling, partial curve].

Turning to `CC(=O)N1CCCc2cc(S(=O)(=O)N3CCC(C(=O)NC4CCCCC4)CC3)ccc21`, the AC50 is 39.8 µM [rising, single point].

For the compound `Cc1ccc(C(=O)COC(=O)C(Cc2c[nH]c3ccccc23)NC(=O)c2ccc(Br)cc2)cc1` (centres undefined), the AC50 was 25.1 µM [falling, single point].

`O=C(NCCCO)C(=O)Nc1c2c(nn1-c1ccc(F)cc1)CSC2`: the AC50 is 3.98 µM [rising, single point] [measured here: IkB-luc green channel].

With `Cc1nnc(N2CCC(C(=O)NCc3ccc(N(C)C)cc3)CC2)c2nn(-c3ccccc3)c(C)c12`, the AC50 is 10 µM [falling, partial curve].

For the compound `COC(=O)C1=C(C)N(c2cccc(Cl)c2)C(=O)C1`, the AC50 was 3.16 µM [falling, full curve].

In the case of `COc1ccc(OC)c(CNC(=O)Cn2nc(C)c3c(C)n(-c4ccccc4)nc3c2=O)c1`, the AC50 is 25.1 µM [falling, single point].

With `O=C(Nc1ccc(Cl)cc1)c1ccc2c(c1)N(Cc1ccccc1)C(=O)c1ccccc1S2(=O)=O`, the AC50 is 10 µM [falling, partial curve].

With `Cc1cccc(NC(=O)c2sc3cccc(Cl)c3c2Cl)c1`, the AC50 is 25.1 µM [falling, single point].

The values are drawn from PubChem BioAssay AID445 (National Center for Advancing Translational Sciences (NCATS), 2006).
